ChEMBL document CHEMBL1821589, “Synthesis and structure-activity relationship of 1- and 2-substituted-1,2,3-triazole letrozole-based analogues as aromatase inhibitors” (Eur J Med Chem, 2011)

Molecular target: T1, Aromatase (Homo sapiens, UniProt P11511)
T1 sequence (P11511 whole entry): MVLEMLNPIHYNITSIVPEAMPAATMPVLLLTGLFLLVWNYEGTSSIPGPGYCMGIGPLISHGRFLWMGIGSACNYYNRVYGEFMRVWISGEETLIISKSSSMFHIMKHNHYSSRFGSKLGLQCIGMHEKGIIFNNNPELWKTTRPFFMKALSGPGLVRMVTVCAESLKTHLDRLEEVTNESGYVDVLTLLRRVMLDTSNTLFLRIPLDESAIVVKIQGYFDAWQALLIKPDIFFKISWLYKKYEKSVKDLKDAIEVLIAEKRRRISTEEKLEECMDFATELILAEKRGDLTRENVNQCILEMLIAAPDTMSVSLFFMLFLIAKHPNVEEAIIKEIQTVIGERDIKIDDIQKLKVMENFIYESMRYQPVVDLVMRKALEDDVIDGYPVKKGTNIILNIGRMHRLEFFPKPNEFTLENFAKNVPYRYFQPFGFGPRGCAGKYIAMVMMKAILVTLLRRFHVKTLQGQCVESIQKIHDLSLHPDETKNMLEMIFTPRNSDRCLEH
Assay: Inhibition of aromatase using 7-methoxy-4-trifluoromethyl coumarin as substrate after 30 mins by fluorescence-based colorimetric analysis

Question: For `N#Cc1ccc(C(c2ccc(C#N)cc2)n2ccnn2)cc1`, which IC50 is on record?
Answer: The IC50 was 8 nM.

Question: Which IC50 does the source give for `N#Cc1ccc(Cn2ccnc2)cc1` here?
Answer: The IC50 was 7 nM.
